Test results taken from patent US9458194B2 (Lubrizol Advanced Materials, Inc., priority 2013, dated 2016).
One purity is given for all peptides; the source may state it once.

Legend:
[1] = general procedure: Fmoc solid-phase peptide synthesis; pMBHA; details: whole synthesis, gradients of MeCN (+0.07% TFA) in H2O (+0.1% TFA), scale 15 mmol
[2] = general procedure: Fmoc solid-phase peptide synthesis; 2-chlorotrityl; details: whole synthesis, gradients of MeCN (+0.07% TFA) in H2O (+0.1% TFA), scale 33.6 mmol
[3] = general procedure: Fmoc solid-phase peptide synthesis; AM-MBHA; details: whole synthesis, gradients of MeCN (+0.07% TFA) in H2O (+0.1% TFA), scale of the general procedure 15 mmol

| Substance | crude HPLC purity [1] | other results |
| --- | --- | --- |
| Ac-L-Lys-L-His-L-Lys(Ac-L-Lys-L-His)-4-Abz-NH2 | exceeding 80% |  |
| Ac-L-Asp-L-Val-L-Lys-L-Tyr-OH (DVKY; N-acetyl) |  | crude HPLC purity [2]: exceeding 80% |
| Ac-L-Lys-L-Tyr-L-Lys(Ac-L-Lys-L-Tyr)-4-Abz-NH2 | exceeding 80% |  |
| Ac-Gly-L-Gln-L-Lys(Ac-Gly-L-Gln)-4-Abz-NH2 |  | crude HPLC purity [3]: exceeding 80% |
| Ac-L-Asn-L-Thr-L-Lys(Ac-L-Asn-L-Thr)-4-Abz-NH2 | exceeding 80% |  |
| Ac-L-Lys-L-Cit-L-Lys(Ac-L-Lys-L-Cit)-4-Abz-NH2 | exceeding 80% |  |
